Experimental data published in patent publication US8268786B2, “Anti-cancer tocotrienol analogues and associated methods” (First Tech International Limited, priority 2009, dated 2012).
“Also recorded” adds a separate entry of the source. Some results were stated once for a whole list of compounds, not compound by compound. For at least one compound, name, drawing or mass did not settle the structure.

Assays:
[1] = test system: ER-negative human breast cancer cells MDA-MB-231; assay: MTT antiproliferative assay, MDA-MB-231 cells; type: cell-based
Protocol: (§1) For each of the assays performed the compounds were dissolved in aqueous culture media by binding the compounds with bovine serum albumin (BSA).
(§2) An amount of each compound appropriate for the desired final compound concentration was placed in a 1.5 mL screw top glass vial and dissolved in 100 μL of 100% ethanol. Once dissolved, this ethanol/compound solution was added to a small volume of sterile 10% BSA in water and incubated overnight at 37° C. […] Ethanol was added to all treatment media such that the final ethanol concentration was the same in all treatment groups within a given experiment and was always less than 0.1%. Although the examples provided have been described in conjunction with specified amounts of ethanol and other compounds it should be understood that the invention is applicable to embodiments not having those limited concentration.
(§3) The cell growth of MCF7 (Example 24) and MDA-MB-231 (Example 25) cell lines was measured using the MTT assay procedures described above and an MTT assay kit (TACS™, Trevogen®, Inc., Gaithersburg, Md.). After passing the cells for 3-4 times, growing cells were incubated in a 96-well plate at a density of 8×10^3 cells per well, and allowed to attach for 24 hours. Complete growth medium was then replaced with 100 μL of RPMI serum free medium (GIBCO-Invitrogen, NY) containing various doses (20, 10, 5, 2 μM) of the tested compound and the culture continued at 37° C. under 5% CO2. After 96 hours, the incubated cells were treated with MTT solution (10 μL/well) at 37° C. for 4 hours. […] Absorbance of the samples was determined at 570 nm with an ELISA plate reader (BioTek, VT). Absorbance readings were converted to estimated cell numbers based on a standard curve prepared by plating various concentration of cells, as determined by hemocytometer, and measuring the absorbance of those cells at the start of each experiment. The IC50 value of each compound was calculated using nonlinear regression (curve fit) of log concentration versus the number of cells/well implemented using GraphPad Prism 5.0 program. […]

[2] = test system: ER-positive human breast cancer cells MCF7; assay: MTT antiproliferative assay, MCF7 cells; type: cell-based
Protocol: as §1, §2, §3

[3] = test system: highly malignant+SA mouse mammary epithelial cell line; assay: MTT antiproliferative assay, +SA mouse mammary epithelial cells; type: cell-based
Protocol: The antiproliferative effects of Compounds 1-21 were tested using 3-(4,5-dimethylthiazol-2-yl)-2,5-diphenyl tetrasolium bromide (MTT) colorimetric assay utilizing cultures of the highly malignant+SA mouse mammary epithelial cell line maintained on serum-free media and containing 10 ng/mL epidermal growth factor (EGF) and 10 μg/mL insulin as mitogens using 24-well culture plates (6 wells/group) by MTT assay.
Cells were then divided into different treatment groups and given fresh control or treatment media every day. In growth inhibition studies, (IC50), +SA cells were treated with various doses of individual tocotrienol or tocotrienol derivatives for 4 days and then the viable cell number was determined using the MTT assay. Optical density of each sample was read at 570 nm on a microplate reader (SpectraCount, Packard BioScience Company, Meriden, Conn.) against a blank prepared from cell-free cultures. The number of cells/well was calculated against a standard curve prepared by plating various concentrations of cells, as determined by hemocytometer, at the start of each experiment. See McIntyre referenced above.
as §1, §2

[4] = test system: highly metastatic breast cancer cell line MDA-MB-231; assay: BME Cell Invasion Assay (Boyden chamber, calcein-AM); type: cell-based, human; conditions: MDA-MB-231, 5 μM
Protocol: Anti-Invasion Assays were performed to measure the anti-invasive properties of Compounds 1-21 using a 96 well basement membrane extract “BME” Cell Invasion Assay (Cultrex®, Trevogen, Catalog# 3455-096-K) with the highly metastatic breast cancer cell line MDA-MB-231. This assay employs a simplified Boyden Chamber design with a polyethylene terephthalate membrane (8 μm). Detection of cell invasion is quantified using calcein-AM. Cells internalize calcein-AM and intracellular esterases cleave the acetomethylester moiety to generate free calcein. Free calcein fluoresces brightly, and this fluorescence may be used to quantify the number of cells that have invaded across BME. (See Tamilarasan and Borghesani, referenced above)
About […] of basement membrane extract (BME, 1×) coat was added per well. After overnight incubation at 37° C. in a 5% CO2 incubator, 50,000/50 μL of MDA-MB-231 cells in serum free RPMI medium were added to the top chamber of each well, which contained the tested compound at a treatment concentration of 5 μM. […] Fluorescence of the samples was determined at 485 nm excitation; 520 nm emissions were measured using a plate reader (BioTek, VT). The numbers of cells that invaded through the BME coat were calculated using a standard curve.
Differences among the various treatment groups were determined by analysis of variance (ANOVA) followed by Dunnett's t-test. […]

| SMILES | antiproliferative activity (in words) [1] | antiproliferative activity (in words) [2] | antiproliferative activity (in words) [3] | anti-invasive activity (in words) [4] |
| --- | --- | --- | --- | --- |
| CC(C)=CCC/C(C)=C/CC/C(C)=C/CCC1(C)CCc2c(C)c(OC(=O)NS(=O)(=O)c3ccccc3)c(C)c(C)c2O1 (centres unmarked) [Compound 4, 2,5,7,8-tetramethyl-2-((3E,7E)-4,8,12-trimethyltrideca-3,7,11-trienyl)chroman-6-ylphenylsulfonylcarbamate] | showed antiproliferative activity | showed antiproliferative activity; also recorded: improved activities versus the starting natural products 1-3 | showed antiproliferative activity | showed anti-invasive activity |
| CC(C)=CCC/C(C)=C/CC/C(C)=C/CCC1(C)CCc2cc(OC(=O)NS(=O)(=O)c3ccccc3)c(C)c(C)c2O1 (centres unmarked) [Compound 5, 2,7,8-trimethyl-2-((3E,7E)-4,8,12-trimethyltrideca-3,7,11-trienyl)chroman-6-ylphenylsulfonylcarbamate] | showed antiproliferative activity | showed antiproliferative activity; also recorded: statistically significant anti-proliferative activity | showed antiproliferative activity; also recorded: statistically significant anti-proliferative activity |  |
| CC(C)=CCC/C(C)=C/CC/C(C)=C/CCC1(C)CCc2cc(OC(=O)NS(=O)(=O)c3ccccc3)cc(C)c2O1 (centres unmarked) [Compound 6, 2,8-dimethyl-2-((3E,7E)-4,8,12-trimethyltrideca-3,7,11-trienyl)chroman-6-ylphenylsulfonylcarbamate] | showed antiproliferative activity | showed antiproliferative activity; also recorded: improved activities versus the starting natural products 1-3 | showed antiproliferative activity; also recorded: statistically significant anti-proliferative activity | showed anti-invasive activity |
